From PubChem BioAssay AID1347076 (National Center for Advancing Translational Sciences (NCATS), 2019)
Among all 400,000 compounds or so, about 13,000 (3.2%) were called active. The shares of active, inactive and inconclusive entries below differ from those in the screen. Calls follow the shape of the dose curve; as a rule, active = well fitted cell-killing curve with a large enough effect; inconclusive = small, poorly fitted or top-dose-only effect, or effect the other way; inactive = flat fitted curve, though single readings scatter. Where the call is inconclusive, the potency comes from a doubtful curve fit.

Assay: qHTS assay for MDR1-selective chemotherapeutics: Primary screen using the drug-selected MDR subline cells KB-V1; also: nearly all actives have a fitted effect of over 60% in size
Settings: KB-V1 MDR cells viability, CellTiter-Glo, 72 h; series mostly up to 46.1 µM
In short: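 KB-V1 MDR subline cells in DMEM (phenol-red free, 10% FBS) exposed to compounds in qHTS concentration series for 72 h at 37 degrees C. Viability read by CellTiter-Glo luminescence; concentration-effect curves fitted after normalization and correction.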
Potency is read from the fitted curve at half-maximal effect.

Structure (SMILES) | Potency
CCC(c1nc2ccccc2c(=O)n1-c1nc2ccccc2s1)N1C(=O)c2ccccc2C1=O (stereo not given) | active: 3.66 µM
CC(=O)Nc1ccccc1NC(=O)C/C(C)=N/NC(=O)Cc1cccc2ccccc12 | inconclusive: 8.2 µM [rising, partial curve, poor fit]
C[C@H](CO)N1C[C@H](C)[C@@H](CN(C)S(=O)(=O)c2cccs2)Oc2ccc(NS(=O)(=O)c3ccc(F)cc3)cc2C1=O | inactive
O=C(/C=C/[C@H]1O[C@@H](n2ccc(=O)[nH]c2=O)[C@H](O)[C@@H]1O)NCCN1CCCCC1 | inactive
CCOC(=O)C1=NOC2(C1)C(=O)Nc1c(Cl)cccc12 (stereo not given) | inactive
Cc1c(C(=O)N2CCN(c3ccccn3)CC2)oc2c1C(=O)CC(C)(C)C2 | inactive
O=C1N[C@@H](Cc2c[nH]c3ccccc23)COC(=O)[C@@H](Cc2ccc(F)cc2)CC/C=C/C[C@@H]1CC(=O)N(CCO)Cc1ccccc1 | inactive
COC(=O)c1ccc(N2CCC(C)CC2)c(N)c1 | inconclusive: 29.1 µM [cytotoxic, single point]
Cc1cc(Cl)c2oc(C(=O)N(CCO)Cc3ccccc3)c(C)c2c1 | inactive
COc1cccc(C(=O)Nc2cccc(NC(C)=O)c2)c1 | inconclusive: 29.1 µM [cytotoxic, single point]
Cc1ccc(C)c(S(=O)(=O)N2C(=S)NC(=O)C2C(C)C)c1 (stereo not given) | inconclusive: 16.4 µM [rising, partial curve, poor fit]
CCOc1cccc(CN2CCCC(C(=O)c3cc(Cl)ccc3OC)C2)c1O (stereo not given) | inactive
Cc1ccc(NC(=O)c2cc3c(s2)CCCC3)cc1 | inactive
Cc1cc(C)c(S(=O)(=O)NCCc2sc(-c3cccnc3)nc2C)c(C)c1 | inconclusive: 10.3 µM [cytotoxic, partial curve]
CCOc1cccc(OCCOc2ccc(C(=O)c3ccccc3)cc2)c1 | inconclusive: 13 µM [cytotoxic, partial curve]
CCc1nnc(NC(=O)CSc2nc3cc4c(cc3cc2C)OCCO4)s1 | inconclusive: 2.91 µM [cytotoxic, full curve, poor fit]
COc1ccc(S(=O)(=O)Nc2ccccc2C(=O)Nc2nc(-c3ccc(F)cc3)cs2)cc1OC | active: 14.6 µM
Cc1ccc(Cl)cc1N1CCN(S(=O)(=O)c2ccc3[nH]c(=O)c(=O)[nH]c3c2)CC1 | inactive
CC(C)CCOc1ccc(C(=O)Nc2cc(S(=O)(=O)N3CCOCC3)ccc2N2CCOCC2)cc1 | inconclusive: 0.82 µM [rising, full curve, poor fit]
CC1(C(=O)O)CCC(C(=O)Nc2ccc(F)cc2)C1(C)C (stereo not given) | inconclusive: 7.31 µM [rising, partial curve, poor fit]
COc1ccccc1C(=O)Nc1nnc(CCc2ccccc2)s1 | inconclusive: 3.26 µM [cytotoxic, partial curve, poor fit]
O=C1C2C3C=CC(C2C(=O)N1C1CCCCC1)C1C2C(=O)N(C4CCCCC4)C(=O)C2C31 (stereo not given) | inconclusive: 5.8 µM [cytotoxic, full curve, poor fit]
Cc1ccc(CNC(=O)C2CCC(=O)N(CCc3ccc(Cl)cc3)C2)cc1 (stereo not given) | inconclusive: 9.2 µM [cytotoxic, partial curve, poor fit]
CC(=O)Oc1ccccc1Cn1c(C)c(C(=O)NCc2ccc(Cl)c(Cl)c2)sc1=O | inconclusive: 23.1 µM [cytotoxic, single point]

Structure (SMILES) | Potency
N#Cc1c(Nc2ccccc2Cl)s[nH]c1=O | inconclusive: 23.1 µM [rising, partial curve, poor fit]
COc1ccc(NC(=O)C2CCCN2C(=O)OC(C)(C)C)cc1 (stereo not given) | inactive
CCOc1ccc(Cc2nnc(SCC(=O)Nc3ccc(C(C)=O)cc3)[nH]c2=O)cc1 | inconclusive: 20.6 µM [rising, single point]
CCc1ccccc1OCC(=O)Nc1ccc2c(c1)OCCO2 | inconclusive: 18.4 µM [cytotoxic, single point]
Oc1c(Cl)cc(Cl)cc1C1=NNC(c2ccc(Cl)cc2)C1 (stereo not given) | inconclusive: 9.2 µM [cytotoxic, partial curve]
CCOc1ccc(C(=O)N(CN2CCCC2=O)c2ccc(C)cc2)cc1 | active: 4.61 µM
CC1CC(C)CN(S(=O)(=O)c2ccc(Cl)cc2)C1 (stereo not given) | inconclusive: 16.4 µM [cytotoxic, single point]
Nc1cccc2cccnc12 | inactive
Cc1nn(-c2ccccc2)c(C)c1[N+](=O)[O-] | inconclusive: 25.9 µM [rising, single point]
Cc1ccc(Cc2nc3ccccc3n2C(CCc2ccccc2)c2nc3ccccc3[nH]2)cc1 (stereo not given) | inconclusive: 14.6 µM [cytotoxic, partial curve]
COc1nc(Nc2ccccc2)nc(OC)n1 | active: 8.2 µM
COc1ccc(S(=O)(=O)N2CCC3(CC2)OCCN3S(=O)(=O)c2cccs2)cc1OC | inconclusive: 23.1 µM [cytotoxic, single point]
CC(=O)Nc1ccc(NC(=O)C(C)OC(=O)CNS(=O)(=O)c2cccc(Cl)c2)cc1 (stereo not given) | inconclusive: 20.6 µM [rising, single point]
CCOc1ccc(CN(C)CC(=O)Nc2cccc(C)c2)cc1OC | inconclusive: 6.51 µM [cytotoxic, full curve]
Cc1cc(C)nc(SCc2ccccc2C#N)n1 | inconclusive: 0.0184 µM [rising, full curve, poor fit]
COc1cccc(C(=O)OCc2cc(=O)oc3c(C)c(C)ccc23)c1OC | inconclusive: 14.6 µM [cytotoxic, single point]
CCCCC(C(=O)O)C(C)CC(=O)Nc1ccn(-c2ccccc2)n1 (stereo not given) | inactive
Cc1cccc(-n2[nH]c3c4c(ccc3c2=O)C(=O)c2ccccc2C4=O)c1 | inconclusive: 18.4 µM [cytotoxic, single point]
Cc1cccc(NC(=O)CSc2nnc(Cn3nnc(-c4ccccc4)n3)n2-c2ccccc2)c1 | inconclusive: 6.51 µM [cytotoxic, partial curve]
O=C(Nc1ccccc1-c1ccccc1)C1CCCC1 | inconclusive: 1.84 µM [rising, partial curve, poor fit]
CCn1ccnc1CN(C)Cc1cn(-c2ccccc2)nc1-c1ccc(OC)cc1F | inactive
CCOc1cc(NS(=O)(=O)c2ccc(Cl)cc2)c(OCC)cc1NC(=O)CC(C)C | active: 11.2 µM
CC(C)(C)c1ccccc1OCCCCCn1ccnc1 | inconclusive: 29.1 µM [cytotoxic, single point]
Cc1ccc(NC(=O)C[n+]2cc(-c3ccccc3)n3c2CCC3)cc1 | inactive

Gathered by group, the entries above containing a thiophene ring, fused or not
Structure (SMILES) | Potency
C[C@H](CO)N1C[C@H](C)[C@@H](CN(C)S(=O)(=O)c2cccs2)Oc2ccc(NS(=O)(=O)c3ccc(F)cc3)cc2C1=O | inactive
Cc1ccc(NC(=O)c2cc3c(s2)CCCC3)cc1 | inactive
COc1ccc(S(=O)(=O)N2CCC3(CC2)OCCN3S(=O)(=O)c2cccs2)cc1OC | inconclusive: 23.1 µM [cytotoxic, single point]

Continuation:

Structure (SMILES) | Potency
Clc1ccc(-n2nnc(-c3ncc[nH]3)n2)cc1Cl | inconclusive: 16.4 µM [rising, single point]
O=C1C2CCCCN2C(=O)N1CCCCN1CCN(c2cccc(Cl)c2)CC1 (stereo not given) | inconclusive: 8.2 µM [cytotoxic, partial curve]
CC1(C)CC(=O)C=C(NC2CCCCCC2)C1 | inconclusive: 1.16 µM [cytotoxic, full curve]
CC(C)[C@@H]1Cc2[nH]c(=S)[nH]c(=O)c2[C@H](C)O1 | active: 5.8 µM
O=C(O)c1ccc(-c2ccc(Cl)cc2Cl)o1 | inactive
CCC(=O)Nc1ccc2c(c1)nc(CCN1CCN(c3ccccn3)CC1)n2C | inconclusive: 8.2 µM [rising, partial curve, poor fit]
Cc1cc(C)c2cc(C#N)c(N3CCCN(C(=O)c4cnccn4)CC3)nc2c1 | inconclusive: 14.6 µM [cytotoxic, partial curve]
CCOc1ccc2c(c1)-c1c(ssc1=S)C(C)(C)N2C | inconclusive: 29.1 µM [cytotoxic, single point]
O=C(N/N=C/c1cccs1)c1cc(-c2ccncc2)nc2ccccc12 | active: 1.84 µM
COC(=O)c1[nH]c2ccc(C)cc2c1NC(=O)CN1CCN(c2ccccc2)CC1 | inconclusive: 18.4 µM [cytotoxic, partial curve]
COCCN(CC1CCCN(C2Cc3ccccc3C2)C1)C(=O)CCC(F)(F)F (stereo not given) | inactive
CC(C)N(Cc1ccccc1)CC(O)COc1ccc(S(=O)(=O)N2CCOCC2)cc1Cl (stereo not given) | inconclusive: 8.2 µM [cytotoxic, partial curve]
COc1ccc2[nH]c(=O)c(CN(CC3CCCO3)C(=S)Nc3cccc(C)c3)cc2c1 (stereo not given) | inconclusive: 8.2 µM [cytotoxic, partial curve]
CCOC(=O)[C@H]1[C@H]2COc3ccc(OC)cc3[C@@H]2N2C(=O)c3ccc(Cl)cc3NC(=O)[C@@]12C | inactive
Cc1ccccc1C(=O)Nc1ccccc1 | inconclusive: 23.1 µM [rising, partial curve]
CN(C(=O)COc1ncnc2sccc12)c1ccccc1 | inactive
N#CC1=C(N)Oc2cc(N)ccc2C1c1ccc(F)cc1F (stereo not given) | inconclusive: 3.26 µM [cytotoxic, full curve, poor fit]
Cc1nc2ccc(NC(=O)c3ccco3)cc2s1 | inactive
Cc1ccc(NC(=O)CCCn2c(=O)oc3ccccc32)c(O)c1 | inactive
CCOc1ccc(N=c2cc(-c3ccc(OC)cc3)oc3ccccc23)cc1 | inconclusive: 16.4 µM [cytotoxic, single point]
CC(Sc1nc(N2CCOCC2)c2c(c1C#N)CC(C)(C)OC2)C(=O)Nc1ccccc1 (stereo not given) | inconclusive: 29.1 µM [cytotoxic, single point]
CCCOc1ccc(N2C(=O)CC(SC(=NCC)Nc3cccc(F)c3)C2=O)cc1 (stereo not given) | inconclusive: 20.6 µM [cytotoxic, single point]
